The subject of this data set is NagR (ROK family repressor). Nature of the data set: EMSA. To be noted: 10 mM GlcN-6P does not disrupt complex (25 nM NagR).

These results are taken from doi:10.1101/2022.04.06.487429.

For at least one entry, the source does not settle the construct or the ends of the probe.

With “GCCGATATTTCATATATGTTAAGGACGTTGACAAAATATCTCCCGAGAC (double strand) [hmoA probe]”, the binding result was “binds”.
